Measured values: article PMC10362501
Results are given in words; binding and its absence hold for the method and conditions named. In cells and extracts the contact can be indirect. A result given as binding can be weak or reduced; the word gives no strength. Where a sequence is shown, tags or fusion partners need not be part of it.

Molecular target: T1, UNC45B-FLAG (human) (UniProt Q8IWX7)
T1 sequence: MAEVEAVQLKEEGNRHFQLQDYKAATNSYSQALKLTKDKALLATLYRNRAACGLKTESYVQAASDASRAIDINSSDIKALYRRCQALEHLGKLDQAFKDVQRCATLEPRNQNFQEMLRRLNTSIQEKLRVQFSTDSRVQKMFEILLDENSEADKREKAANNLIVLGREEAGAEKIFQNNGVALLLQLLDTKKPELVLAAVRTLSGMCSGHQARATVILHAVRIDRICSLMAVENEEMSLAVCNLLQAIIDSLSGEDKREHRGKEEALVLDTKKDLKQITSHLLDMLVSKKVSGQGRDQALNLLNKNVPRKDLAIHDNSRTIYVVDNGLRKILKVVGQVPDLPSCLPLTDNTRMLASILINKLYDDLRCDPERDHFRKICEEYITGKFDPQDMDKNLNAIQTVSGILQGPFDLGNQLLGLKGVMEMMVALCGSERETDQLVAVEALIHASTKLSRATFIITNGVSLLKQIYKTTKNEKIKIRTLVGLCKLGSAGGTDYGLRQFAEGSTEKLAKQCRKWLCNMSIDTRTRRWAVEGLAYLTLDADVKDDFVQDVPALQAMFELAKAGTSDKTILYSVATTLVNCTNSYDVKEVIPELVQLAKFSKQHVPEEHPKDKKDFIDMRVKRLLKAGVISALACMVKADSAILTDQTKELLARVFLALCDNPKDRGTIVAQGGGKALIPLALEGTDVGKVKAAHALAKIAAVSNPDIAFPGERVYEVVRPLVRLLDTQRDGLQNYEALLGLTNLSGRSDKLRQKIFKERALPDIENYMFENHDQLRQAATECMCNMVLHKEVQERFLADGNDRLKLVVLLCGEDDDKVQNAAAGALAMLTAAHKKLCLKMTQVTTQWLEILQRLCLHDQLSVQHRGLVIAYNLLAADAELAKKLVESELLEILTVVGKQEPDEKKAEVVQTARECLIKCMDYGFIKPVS
Test: co-IP; UNC45B-FLAG pulled down with anti-FLAG beads from lysates of WT^UNC45B-OE-CMs, WT-CMs as negative control; eluates analysed by SDS-PAGE and western blot

binding: binds
Substance: HSP70
